Experimental data published in PMC10762000.
No constants are given. Whether binding was seen depends on the method and setting. Binding seen in cells or lysates may run through a third protein. Some entries that bind do so weakly or less than the wild type. Where a sequence is shown, tags or fusion partners need not be part of it.

Target: T1, murine TLR9 with C-terminal HA tag (mTLR9-HA) (mouse) (UniProt Q9EQU3)
T1 sequence: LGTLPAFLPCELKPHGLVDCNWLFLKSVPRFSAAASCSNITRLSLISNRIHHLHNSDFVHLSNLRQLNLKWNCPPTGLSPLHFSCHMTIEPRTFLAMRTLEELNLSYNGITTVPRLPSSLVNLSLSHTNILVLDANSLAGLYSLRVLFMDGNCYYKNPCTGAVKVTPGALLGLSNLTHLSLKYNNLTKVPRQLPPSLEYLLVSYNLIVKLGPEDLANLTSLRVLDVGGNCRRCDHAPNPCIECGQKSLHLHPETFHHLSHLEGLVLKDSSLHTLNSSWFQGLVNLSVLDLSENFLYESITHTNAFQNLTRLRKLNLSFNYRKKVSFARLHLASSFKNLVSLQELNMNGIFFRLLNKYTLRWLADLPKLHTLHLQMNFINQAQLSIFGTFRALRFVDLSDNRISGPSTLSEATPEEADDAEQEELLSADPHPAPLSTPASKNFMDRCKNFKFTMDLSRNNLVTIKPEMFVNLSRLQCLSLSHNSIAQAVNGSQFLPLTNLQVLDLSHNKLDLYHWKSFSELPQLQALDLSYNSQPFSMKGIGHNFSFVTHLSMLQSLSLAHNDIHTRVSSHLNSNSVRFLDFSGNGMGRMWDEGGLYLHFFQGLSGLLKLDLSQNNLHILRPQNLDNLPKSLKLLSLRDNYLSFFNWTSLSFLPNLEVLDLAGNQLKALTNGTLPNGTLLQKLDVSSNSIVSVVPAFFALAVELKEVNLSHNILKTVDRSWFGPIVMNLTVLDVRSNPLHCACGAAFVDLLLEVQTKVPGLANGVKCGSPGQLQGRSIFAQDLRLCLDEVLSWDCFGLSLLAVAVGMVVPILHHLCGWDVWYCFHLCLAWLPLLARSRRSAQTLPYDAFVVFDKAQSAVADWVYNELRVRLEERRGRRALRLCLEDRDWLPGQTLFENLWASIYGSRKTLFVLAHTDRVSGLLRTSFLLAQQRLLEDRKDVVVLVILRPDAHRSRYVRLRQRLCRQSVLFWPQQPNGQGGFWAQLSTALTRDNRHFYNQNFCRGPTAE
Test: co-IP; Immunoprecipitation of TLR9-HA with anti-HA matrix from lysates (1 mg per 1 ml) of RAW macrophage lines treated overnight with DMSO or HDSF, overnight at 4 °C, 4 washes with lysis buffer; immunoblot of UNC93B1-FLAG

B1: UNC93B1-FLAG (protein, UniProt Q8VCW4 1-598)
chain: MEVEPPLYPVAGAAGPQGDEDRHGVPDGPEAPLDELVGAYPNYNEEEEERRYYRRKRLGVVKNVLAASTGVTLTYGVYLGLLQMQLILHYDETYREVKYGNMGLPDIDSKMLMGINVTPIAALLYTPVLIRFFGTKWMMFLAVGIYALFVSTNYWERYYTLVPSAVALGMAIVPLWASMGNYITRMSQKYYEYSHYKEQDEQGPQQRPPRGSHAPYLLVFQAIFYSFFHLSFACAQLPMIYFLNNYLYDLNHTLINVQSCGTKSQGILNGFNKTVLRTLPRSKNLIVVESVLMAVAFLAMLMVLGLCGAAYRPTEEIDLRSVGWGNIFQLPFKHVRDFRLRHLVPFFIYSGFEVLFACTGFALGYGVCSMGLERLAYLLIAYSLGASASSVLGLLGLWLPRSVPLVAGAGLHLLLTLSLFFWAPAPRVLQHSWIFYFVAALWGVGSALNKTGLSTLLGILYEDKERQDFIFTIYHWWQAVAIFVVYLGSSLPMKAKLAVLLVTLVAAAASYLWMEQKLQQGLVPRQPRIPKPQHKVRGYRYLEEDNSDESDMEGEQGQGDCAEDEAPQAGPLGAEPAGPCRKPCPYEQALGGDGPEEQ
  binding: binds
